Laboratory results published in article PMC2515349.
These are yes or no findings as the source states them, for the method shown. Binding seen in cells or lysates may run through a third protein. Binding can be weak; no strength is given.

Amino acid sequences for entries named in this document (tags omitted).
UniProt P53618: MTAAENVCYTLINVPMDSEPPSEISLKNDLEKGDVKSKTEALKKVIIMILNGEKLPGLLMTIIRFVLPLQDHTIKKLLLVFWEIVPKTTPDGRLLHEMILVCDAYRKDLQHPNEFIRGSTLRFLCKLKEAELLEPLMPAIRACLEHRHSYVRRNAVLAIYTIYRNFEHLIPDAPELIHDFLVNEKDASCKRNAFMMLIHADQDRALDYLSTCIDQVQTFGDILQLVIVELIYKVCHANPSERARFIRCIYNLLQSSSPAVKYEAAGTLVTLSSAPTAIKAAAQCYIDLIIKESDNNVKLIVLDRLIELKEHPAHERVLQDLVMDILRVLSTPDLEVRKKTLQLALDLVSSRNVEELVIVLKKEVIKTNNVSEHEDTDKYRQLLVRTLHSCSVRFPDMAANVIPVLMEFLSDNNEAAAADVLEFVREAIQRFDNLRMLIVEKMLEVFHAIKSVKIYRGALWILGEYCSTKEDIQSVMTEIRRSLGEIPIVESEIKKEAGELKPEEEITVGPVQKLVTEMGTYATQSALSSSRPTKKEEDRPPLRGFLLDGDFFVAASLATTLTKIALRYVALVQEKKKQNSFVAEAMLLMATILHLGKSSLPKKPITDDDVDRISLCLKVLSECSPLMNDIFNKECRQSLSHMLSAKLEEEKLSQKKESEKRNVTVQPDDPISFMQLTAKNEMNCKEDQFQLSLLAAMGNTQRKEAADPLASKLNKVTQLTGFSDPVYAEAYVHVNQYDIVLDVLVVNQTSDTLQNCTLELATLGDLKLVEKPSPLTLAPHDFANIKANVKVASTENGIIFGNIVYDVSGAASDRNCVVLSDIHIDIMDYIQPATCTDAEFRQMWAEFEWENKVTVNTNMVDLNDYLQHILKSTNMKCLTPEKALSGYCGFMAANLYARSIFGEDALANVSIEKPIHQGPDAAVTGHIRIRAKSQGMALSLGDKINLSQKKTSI

Target: β-COP (human (endogenous in CEM)) (UniProt P53618)
Assay: co-IP; CEM T cells transduced with adenovirus (Figure 7C) or concentrated MSCV (Figure 8E), 20 mM NH4Cl for 16 hours, not cross-linked; lysed in 1% digitonin, 100 mM NaCl, 50 mM Tris pH 7.0, 1 mM CaCl2, 1 mM MgCl2; precipitated with anti-β-COP M3A5 cross-linked to beads; western blot for Nef

Substance: HIV-1 Nef M20A (adenoviral) (from UniProt P03406)
- binding: binds
